Laboratory results: PubChem BioAssay AID1259298 (Sanger Institute, 2017)
The whole screen tested 794 reagents; shown is an unselected part. In the full data, 20 (2.5%) were called active. 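Calls rest only on the knock-down-alone score; drug synergy scores played no part in them.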 Unmarked entries are inactive. Viability is capped at 1. Further read-outs or replicates are left out here. Not stated in the record: the amount of reagent, the time to read-out.

Purpose: 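Kinases whose loss strengthens killing by BYL719, cetuximab or trametinib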 (primary screen)
System: HT55 human colorectal cancer cell line
Reagent: siRNA pool against human genes
Conditions: anchor drug BYL719 1 µM, cetuximab 5 µg/ml or trametinib 10 nM, or DMSO vehicle alone
Read-out: 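Replicate-averaged viability versus wells of non-targeting pool; knock-down-only robust z-score; per-drug synergy score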
Reading the numbers: robust z-score, knock-down alone: higher = more cells remaining; low means essential gene; viability vs control pool, no drug: higher = more viable cells
Rule for the call: 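Essential when the robust z-score for knock-down alone with DMSO is below -3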
Calls: active = essential (knock-down alone); inactive = no change alone

target gene | PubChem SID | robust z-score, knock-down alone | viability vs control pool, no drug (fraction)
CUL1 (cullin 1) | SID134310265 | 0.425 | 0.988
STK24 (serine/threonine kinase 24) | SID135620898 | 0.58 | 1
NF1 (neurofibromin 1) | SID152155944 | 0.58 | 1
PRKAR1B (protein kinase cAMP-dependent type I regulatory subunit beta) | SID152149404 | -1.22 | 0.859
CDKN1A (cyclin dependent kinase inhibitor 1A) | SID56478654 | 0.58 | 1
LATS1 (large tumor suppressor kinase 1) | SID56478819 | 0.344 | 0.982
CTCF (CCCTC-binding factor) | SID135623925 | -0.872 | 0.886
GK2 (glycerol kinase 2) | SID56479273 | 0.58 | 1
EIF2AK2 (eukaryotic translation initiation factor 2 alpha kinase 2) | SID56478676 | -0.86 | 0.887
AMER1 (APC membrane recruitment protein 1) | SID135623077 | 0.488 | 0.993
NEK8 (NIMA related kinase 8) | SID56478901 | -1.13 | 0.866
MAPK3 (mitogen-activated protein kinase 3) | SID135620708 | 0.0439 | 0.958
ATP23 | SID152151481 | 0.58 | 1
MST1R (macrophage stimulating 1 receptor) | SID152152898 | -0.896 | 0.885
ILK (integrin linked kinase) | SID152151227 | 0.58 | 1
ILK (integrin linked kinase) | SID152153406 | 0.0615 | 0.959
NEK11 (NIMA related kinase 11) | SID152147168 | -0.501 | 0.915
PDGFRL (platelet derived growth factor receptor like) | SID134315029 | 0.0429 | 0.958
BRAF (B-Raf proto-oncogene, serine/threonine kinase) | SID152153735 | 0.00115 | 0.955
ADCK1 (aarF domain containing kinase 1) | SID135620966 | 0.58 | 1
MET (MET proto-oncogene, receptor tyrosine kinase) | SID56478534 | 0.58 | 1
DCK (deoxycytidine kinase) | SID56479088 | -1.46 | 0.84
MAP3K14 (mitogen-activated protein kinase kinase kinase 14) | SID135620705 | 0.357 | 0.983
MKNK1 (MAPK interacting serine/threonine kinase 1) | SID135620901 | 0.58 | 1
MAP3K9 (mitogen-activated protein kinase kinase kinase 9) | SID152152652 | -1.02 | 0.875
EPHA3 (EPH receptor A3) | SID152156000 | -0.634 | 0.905
RUNX1 (RUNX family transcription factor 1) | SID135620759 | -1.09 | 0.869
PRKDC (protein kinase, DNA-activated, catalytic subunit) | SID56478960 | 0.58 | 1
XYLB (xylulokinase) | SID152153831 | -0.796 | 0.892
BPTF (bromodomain PHD finger transcription factor) | SID152156181 | -1.08 | 0.87
PEAK1 (pseudopodium enriched atypical kinase 1) | SID152152075 | -1.24 | 0.857
ALPK2 (alpha kinase 2) | SID152151764 | 0.14 | 0.966
CSNK1D (casein kinase 1 delta) | SID56478658 | 0.58 | 1
AKT1 (AKT serine/threonine kinase 1) | SID135620599 | 0.58 | 1
NLK (nemo like kinase) | SID56478865 | 0.58 | 1
HUS1 (HUS1 checkpoint clamp component) | SID135620649 | -0.0179 | 0.953
TBK1 (TANK binding kinase 1) | SID56478726 | 0.58 | 1
CAMK2G (calcium/calmodulin dependent protein kinase II gamma) | SID56478805 | 0.58 | 1
NTN4 (netrin 4) | SID152155179 | -0.846 | 0.889
PRKCB (protein kinase C beta) | SID56478724 | 0.58 | 1
DYRK4 (dual specificity tyrosine phosphorylation regulated kinase 4) | SID56478859 | -2.57 | 0.754
KSR2 (kinase suppressor of ras 2) | SID152149204 | 0.58 | 1
BCR (BCR activator of RhoGEF and GTPase) | SID152154242 | 0.139 | 0.966
TTK (TTK protein kinase) | SID56478775 | 0.233 | 0.973
MAST3 (microtubule associated serine/threonine kinase 3) | SID152151496 | 0.58 | 1
ALPK3 (alpha kinase 3) | SID152152513 | 0.373 | 0.984
PKIB (cAMP-dependent protein kinase inhibitor beta) | SID56479212 | 0.58 | 1
EIF2AK3 (eukaryotic translation initiation factor 2 alpha kinase 3) | SID152151333 | 0.366 | 0.983
PRKCA (protein kinase C alpha) | SID56478672 | -1.69 | 0.823
MVK (mevalonate kinase) | SID56479115 | 0.58 | 1
